# Measured values: publication PMC11904943
# Sequences of proteins named here, by UniProt entry; tags and fusion partners are left off. A change or cut given only in a name is not applied to a line headed by its entry.
# UniProt Q9BTA9: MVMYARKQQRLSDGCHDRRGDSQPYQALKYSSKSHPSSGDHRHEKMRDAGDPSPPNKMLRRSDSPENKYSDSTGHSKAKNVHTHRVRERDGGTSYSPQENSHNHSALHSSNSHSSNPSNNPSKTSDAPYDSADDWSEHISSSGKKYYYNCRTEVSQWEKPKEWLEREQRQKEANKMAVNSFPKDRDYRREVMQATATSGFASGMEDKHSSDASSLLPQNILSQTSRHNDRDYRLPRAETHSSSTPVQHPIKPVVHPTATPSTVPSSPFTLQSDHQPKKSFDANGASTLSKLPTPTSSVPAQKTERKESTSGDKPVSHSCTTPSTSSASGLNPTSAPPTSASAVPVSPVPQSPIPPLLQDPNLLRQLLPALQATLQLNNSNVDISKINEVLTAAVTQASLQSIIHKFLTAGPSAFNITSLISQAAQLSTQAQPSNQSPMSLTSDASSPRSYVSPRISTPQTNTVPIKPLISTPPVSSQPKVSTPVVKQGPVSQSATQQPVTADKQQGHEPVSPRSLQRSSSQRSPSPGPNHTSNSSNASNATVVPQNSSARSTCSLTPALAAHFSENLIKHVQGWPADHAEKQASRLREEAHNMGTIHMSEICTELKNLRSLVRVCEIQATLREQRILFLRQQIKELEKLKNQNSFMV
# Results are given in words; binding and its absence hold for the method and conditions named. In cells and extracts the contact can be indirect. Where a sequence is shown, tags or fusion partners need not be part of it.
# Target: T1, Flag-RBM12 (human) (UniProt Q9NTZ6)
# T1 sequence: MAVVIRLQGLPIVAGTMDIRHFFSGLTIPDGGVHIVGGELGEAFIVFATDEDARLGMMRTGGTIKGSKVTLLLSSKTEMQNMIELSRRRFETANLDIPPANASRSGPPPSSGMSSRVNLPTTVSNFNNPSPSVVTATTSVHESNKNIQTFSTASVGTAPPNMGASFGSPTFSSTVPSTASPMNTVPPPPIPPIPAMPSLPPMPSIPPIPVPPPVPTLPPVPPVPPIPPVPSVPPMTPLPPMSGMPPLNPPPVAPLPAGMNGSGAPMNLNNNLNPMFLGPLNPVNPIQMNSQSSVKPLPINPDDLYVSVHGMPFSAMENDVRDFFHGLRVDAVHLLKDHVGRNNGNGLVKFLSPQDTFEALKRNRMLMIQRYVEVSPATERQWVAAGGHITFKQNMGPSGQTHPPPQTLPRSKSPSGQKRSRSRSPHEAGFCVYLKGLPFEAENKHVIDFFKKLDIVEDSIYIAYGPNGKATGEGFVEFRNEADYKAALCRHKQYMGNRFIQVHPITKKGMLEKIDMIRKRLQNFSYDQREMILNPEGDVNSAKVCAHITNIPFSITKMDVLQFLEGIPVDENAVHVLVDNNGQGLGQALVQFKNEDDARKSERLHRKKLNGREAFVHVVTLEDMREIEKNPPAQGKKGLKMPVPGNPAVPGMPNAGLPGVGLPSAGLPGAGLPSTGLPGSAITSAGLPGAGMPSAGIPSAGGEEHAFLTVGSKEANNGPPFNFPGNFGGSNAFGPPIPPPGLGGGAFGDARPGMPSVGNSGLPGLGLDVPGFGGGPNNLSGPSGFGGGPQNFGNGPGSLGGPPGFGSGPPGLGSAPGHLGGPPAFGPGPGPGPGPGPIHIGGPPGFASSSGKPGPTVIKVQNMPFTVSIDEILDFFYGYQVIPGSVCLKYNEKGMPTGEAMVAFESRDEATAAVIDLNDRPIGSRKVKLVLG
# Experiment: co-IP; HEK293T cells transfected with HA-WAC or HA-WACΔCC and Flag-RBM12; IP with anti-Flag M2 agarose beads, western blot with anti-HA
substance,measurement,value
HA-tagged WACΔCC (from UniProt Q9BTA9),binding,no binding
